PMC5996148
The list shows a part of the results.

Key:
Assay in all cases: protein microarray (ProtoArray v5.0), streptavidin-Alexa Fluor 647
Conditions in all cases: 3'-biotin; 20 mM Tris (pH 7.5), 5 mM MgCl2, 100 mM KCl, 0.1% Tween-20, A/T-rich and random oligonucleotide blockers; temperature not stated; high values mean tight binding
[1] = tested on: Uncharacterized protein C18orf1 (human)
[2] = tested on: Uncharacterized protein C1orf74 (human)
[3] = tested on: Uncharacterized protein C2orf57 (human)
[4] = tested on: Uncharacterized protein C2orf62 (human)
[5] = tested on: Uncharacterized protein C7orf50 (human)
[6] = tested on: Uncharacterized protein C8orf41 (human)
[7] = tested on: Uridine-cytidine kinase 2 (human)
[8] = tested on: V-type proton ATPase subunit F (human)
[9] = tested on: V-type proton ATPase subunit e 1 (human)
VAC14 (human) = tested on: VAC14 (human)

## GGGGACAGGGGTATGGGGAGGGG [G4-3 biotinylated (CtG)]
[1]
  binding signal: -0.327 z-score
[2]
  binding signal: -0.327 z-score
[3]
  binding signal: -0.327 z-score
[4]
  binding signal: -0.338 z-score
[5]
  binding signal: 3.5 z-score
[6]
  binding signal: -0.328 z-score
[7]
  binding signal: -0.326 z-score
[8]
  binding signal: -0.342 z-score
[9]
  binding signal: -0.325 z-score
VAC14 (human)
  binding signal: -0.33 z-score
